Data published in paper PMC2774517.
Results are given in words; binding and its absence hold for the method and conditions named. In cells and extracts the contact can be indirect. Some results given as binding are weak or reduced against the parent protein; the word gives no strength. Sequences can lack the tags named with a protein.

T1: GST-fused PARVB (Parvalbumin B as printed) (mouse) (UniProt Q9ES46)
T1 sequence: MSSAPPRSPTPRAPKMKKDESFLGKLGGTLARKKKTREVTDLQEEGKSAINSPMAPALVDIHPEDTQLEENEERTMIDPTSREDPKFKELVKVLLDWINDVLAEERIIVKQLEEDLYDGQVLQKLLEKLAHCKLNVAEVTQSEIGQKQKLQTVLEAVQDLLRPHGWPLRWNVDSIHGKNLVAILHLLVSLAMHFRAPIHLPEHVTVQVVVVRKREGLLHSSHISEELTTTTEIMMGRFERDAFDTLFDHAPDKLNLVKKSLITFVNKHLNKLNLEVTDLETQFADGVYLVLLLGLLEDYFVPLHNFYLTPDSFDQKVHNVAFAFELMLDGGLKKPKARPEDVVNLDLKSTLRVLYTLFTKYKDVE


How the values were obtained:
[1] = target: T1, GST-fused PARVB (Parvalbumin B as printed) (mouse); assay: pull-down; GST fusion (or GST) bound to GST sepharose beads from cleared E. coli lysate and washed 3x with lysis buffer A; T7-CAPN3c129s bacterial lysate added, overnight at 4°C; beads washed 5x; immunoblot with anti-CAPN3; only the target purified
[2] = target: T1, GST-fused PARVB (Parvalbumin B as printed) (mouse); assay: pull-down; GST fusion (or GST) bound to GST sepharose beads from cleared E. coli lysate and washed; IM2 mouse myoblast lysate (buffer B: 50 mM Tris-HCl pH 7.5, 150 mM NaCl, 0.2% Triton X-100; pre-treated with GST sepharose beads) added, overnight at 4°C; beads washed 5x; immunoblot with anti-CAPN3 or anti-PARVB; only the target purified

binding [1]	binding [2]	Binder
binds		T7-CAPN3 C129S (active site mutant of Calpain 3) (enzyme, UniProt P20807 1-821) MPTVISASVAPRTAAEPRSPGPVPHPAQSKATEAGGGNPSGIYSAIISRNFPIIGVKEKTFEQLHKKCLEKKVLYVDPEFPPDETSLFYSQKFPIQFVWKRPPEICENPRFIIDGANRTDICQGELGDSWFLAAIACLTLNQHLLFRVIPHDQSFIENYAGIFHFQFWRYGEWVDVVIDDCLPTYNNQLVFTKSNHRNEFWSALLEKAYAKLHGSYEALKGGNTTEAMEDFTGGVAEFFEIRDAPSDMYKIMKKAIERGSLMGCSIDDGTNMTYGTSPSGLNMGELIARMVRNMDNSLLQDSDLDPRGSDERPTRTIIPVQYETRMACGLVRGHAYSVTGLDEVPFKGEKVKLVRLRNPWGQVEWNGSWSDRWKDWSFVDKDEKARLQHQVTEDGEFWMSYEDFIYHFTKLEICNLTADALQSDKLQTWTVSVNEGRWVRGCSAGGCRNFPDTFWTNPQYRLKLLEEDDDPDDSEVICSFLVALMQKNRRKDRKLGASLFTIGFAIYEVPKEMHGNKQHLQKDFFLYNASKARSKTYINMREVSQRFRLPPSEYVIVPSTYEPHQEGEFILRVFSEKRNLSEEVENTISVDRPVKKKKTKPIIFVSDRANSNKELGVDQESEEGKGKTSPDKQKQSPQPQPGSSDQESEEQQQFRNIFKQIAGDDMEICADELKKVLNTVVNKHKDLKTHGFTLESCRSMIALMDTDGSGKLNLQEFHHLWNKIKAWQKIFKHYDTDQSGTINSYEMRNAVNDAGFHLNNQLYDIITMRYADKHMNIDFDSFICCFVRLEGMFRAFHAFDKDGDGIIKLNVLEWLQLTMYA
	binds	endogenous full-length CAPN3 (Calpain 3) of IM2 myoblasts (enzyme, UniProt Q64691 1-821) MPTVISPTVAPRTGAEPRSPGPVPHPAQGKTTEAGGGHPSGIYSAIISRNFPIIGVKEKTFEQLRRKCLEKKVLYLDPEFPPDETSLFYSQKFPIQFVWKRPPEICENPRFIIGGANRTDICQGDLGDCWFLAAIACLTLNERLLFRVIPHDQSFTENYAGIFHFQFWRYGDWVDVVIDDCLPTYNNQLVFTKSNHRNEFWSALLEKAYAKLHGSYEALKGGNTTEAMEDFTGGVTEFFEIKDAPSDMYKIMRKAIERGSLMGCSIDDGTNMTYGTSPSGLNMGELIARMVRNMDNSLLRDSDLDPRGSDDRPSRTIVPVQYETRMACGLVKGHAYSVTGLEEALFKGEKVKLVRLRNPWGQVEWNGSWSDGWKDWSFVDKDEKARLQHQVTEDGEFWMSYDDFVYHFTKLEICNLTADALESDKLQTWTVSVNEGRWVRGCSAGGCRNFPDTFWTNPQYRLKLLEEDDDPEDSEVICSFLVALMQKNRRKDRKLGANLFTIGFAIYEVPKEMHGNKQHLQKDFFLYNASKARSKTYINMREVSQRFRLPPSEYVIVPSTYEPHQEGEFILRVFSEKRNLSEEAENTISVDRPVKKKKNKPIIFVSDRANSNKELGVDQEAEEGKDKAGPEKRGETPQPRPGHTDQESEEQQQFRNIFRQIAGDDMEICADELKNVLNTVVNKHKDLKTQGFTLESCRSMIALMDTDGSGRLNLQEFHHLWKKIKAWQKIFKHYDTDHSGTINSYEMRNAVNDAGFHLNSQLYDIITMRYADKHMNIDFDSFICCFVRLEGMFRAFNAFDKDGDGIIKLNVLEWLQLTMYA
